The list shows a part of the results. Values are raw readings; no control value is given beside them.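 First-pass screen: polymyxin B was added at a level that permeabilizes the Salmonella outer membrane while sparing the inner membrane. DMSO wells, with and without polymyxin B, defined maximum growth. Because plates differed from one another, each plate's data were ranked separately and the compounds with the lowest OD600 were carried forward as hits.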
Tested on: Salmonella enterica serovar Typhimurium SL1344
Experiment: bacterial growth OD600 after 18 h with compound and polymyxin B; higher = more bacterial growth (less inhibition)
Settings: 50 µM, Mueller-Hinton broth

| Compound | bacterial growth OD600 (polymyxin B 0.75 µg/mL) | bacterial growth OD600 (polymyxin B 1 µg/mL) |
| --- | --- | --- |
| CCc1nc(C)c(CN2C[C@H]3OC(=O)N(CCCc4ccc(F)cc4)[C@H]3C2)[nH]1 | 0.865 |  |
| CCn1ccnc1CN1CCC(Oc2cc(Cl)ccc2C(=O)N2CCCCC2)CC1 |  | 1.04 |
| CN(C)C(=O)N1CCC(C(=O)NC2CCCN(CCc3ccccc3)C2)CC1 (centres undefined) | 0.823 |  |
| CCN1CCC(N2CCC(C(=O)NCc3cccnc3)CC2)CC1 |  | 1.03 |
| Fc1cccc(-c2cnnc(NC3CCCCCC3)n2)c1 | 0.27 |  |
| Cc1nc(C)c(CC(=O)N2CCCC(CCC(=O)N(C)CCc3ccccn3)C2)s1 (centres undefined) |  | 1.03 |
| CCCCN(C)C(=O)c1nc2ccccn2c1CN1CCN(c2ccccc2F)CC1 |  | 0.815 |
| Cc1cccnc1CNC(=O)c1coc(COc2cccc(C(F)(F)F)c2)n1 |  | 0.013 |
| CC(C)c1c(C(=O)NCC2(N3CCOCC3)CCCCCC2)cnn1-c1nccc(-c2ccco2)n1 | 0.698 |  |
| COc1ccc(CN2CCN(Cc3ccccc3F)C(CCO)C2)cc1O (centres undefined) |  | 0.863 |
| O=C(CC1CCCC1)N1CCC(CO)(Cc2cccc(C(F)(F)F)c2)CC1 |  | 0.007 |
| CCOC(=O)C1(CCCc2ccccc2)CCN(C(=O)C2CCCC2)CC1 |  | 0.012 |
| COc1ccc(C(=O)Nc2ccnn2C2CCN(C(=O)C=C(C)C)CC2)cc1 |  | 0.967 |
| Cc1cc(CN2CC[C@@H](N3CCN(c4ccccn4)CC3)[C@H](O)C2)oc1C |  | 0.894 |
| COc1cc(CN2Cc3ccccc3OC(C)C2)cc(OC)c1OC (centres undefined) | 0.895 |  |
| Cc1ccc(S(=O)(=O)NC2CC(=O)N(Cc3cccc(F)c3)C2)c(C)c1 (centres undefined) |  | 0.959 |
| Cc1ccc(-n2cc(CN(C)C3CCOC3)c(-c3ccc(F)cc3)n2)cc1 (centres undefined) |  | 0.813 |
| CCS(=O)(=O)c1ncc(CN2CCCC(COC)C2)n1CCCc1ccccc1 (centres undefined) |  | 0.729 |
| CCOC(=O)N1CCN(C(=O)c2ccc(N3CCC(NCc4c(C)nn(CC)c4C)CC3)cc2)CC1 | 0.765 |  |

Two consecutive entries already listed:

| Compound | bacterial growth OD600 (polymyxin B 0.75 µg/mL) | bacterial growth OD600 (polymyxin B 1 µg/mL) |
| --- | --- | --- |
| CCc1nc(C)c(CN2C[C@H]3OC(=O)N(CCCc4ccc(F)cc4)[C@H]3C2)[nH]1 | 0.865 |  |
| CCn1ccnc1CN1CCC(Oc2cc(Cl)ccc2C(=O)N2CCCCC2)CC1 |  | 1.04 |
